For part of these data: The comparison behind a weaker result is the experiment's own reference, which may not be listed here. For at least one entry, the source does not settle the construct or the ends of the probe. For part of these data: At least one verdict was read from the data and is not stated in words by the source.
Legend:
TRIM25 PRY/SPRY [1] = target: TRIM25 PRY/SPRY (UniProt Q14258); assay: NMR; details: residues 439-630
[2] = target: TRIM25 CC-PRY/SPRY 381-392 7KA (UniProt Q14258); assay: ITC; details: residues 189-630
TRIM25 CC = TRIM25 CC (UniProt Q14258); assay: ITC; details: assigned to CC by order; residues 189-379
TRIM25 PRY/SPRY [3] = target: TRIM25 PRY/SPRY (UniProt Q14258); assay: ITC; details: residues 439-630

Protein sequences, listed by entry. Tags and fused reporters are not part of them. Residues count along the entry.
UniProt Q14258, 439-630: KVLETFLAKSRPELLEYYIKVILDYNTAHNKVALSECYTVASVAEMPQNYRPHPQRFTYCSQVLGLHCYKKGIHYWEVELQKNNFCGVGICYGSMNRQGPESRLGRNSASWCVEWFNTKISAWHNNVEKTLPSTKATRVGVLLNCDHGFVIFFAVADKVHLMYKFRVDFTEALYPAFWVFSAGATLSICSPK
UniProt Q14258, 189-630: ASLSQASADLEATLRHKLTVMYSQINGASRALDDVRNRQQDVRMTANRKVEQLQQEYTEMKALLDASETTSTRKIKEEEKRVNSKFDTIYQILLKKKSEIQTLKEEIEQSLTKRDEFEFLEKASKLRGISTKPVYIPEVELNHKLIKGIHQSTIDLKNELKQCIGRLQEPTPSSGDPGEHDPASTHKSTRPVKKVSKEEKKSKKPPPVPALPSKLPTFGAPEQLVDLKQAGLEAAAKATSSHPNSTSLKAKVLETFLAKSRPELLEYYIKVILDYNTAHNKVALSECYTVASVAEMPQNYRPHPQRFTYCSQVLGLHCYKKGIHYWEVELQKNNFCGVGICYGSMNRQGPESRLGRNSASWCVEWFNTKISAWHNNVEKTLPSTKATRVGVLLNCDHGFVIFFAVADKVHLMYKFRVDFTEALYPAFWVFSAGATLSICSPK
UniProt Q14258, 189-379: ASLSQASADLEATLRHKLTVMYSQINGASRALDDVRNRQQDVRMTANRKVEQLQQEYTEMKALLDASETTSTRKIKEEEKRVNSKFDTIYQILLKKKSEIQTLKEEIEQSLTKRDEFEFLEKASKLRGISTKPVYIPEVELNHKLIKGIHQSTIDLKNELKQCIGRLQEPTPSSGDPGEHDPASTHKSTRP

“AUGGCUAGCUGGAGCCACCCGCAGUUCG / CGAACUGCGGGUGGCUCCAGCUAGCCAU [28-mer duplex RNA]”: binds (TRIM25 PRY/SPRY [1]; CSPs mostly at site 2, signal loss).
“GUAUAGUUUAAAAGGAGAUAACUAUAC [pre-let-7a-1@2]” was tested, and the Kd ([2]; first of two fitted sites, text says short stem loop RNAs) was 0.428 µM and the Kd ([2]; second fitted site) was 967 µM.
With UAAAAGGAGAU [pre-let-7 loop] the Kd (TRIM25 CC) was 30 µM.
For UGAGUUGGA [Lnczc3h7a-SL loop], the binding result (TRIM25 PRY/SPRY [3]; too weak to be quantified) was “binds more weakly”, the Kd (TRIM25 CC) was 32 µM and the binding result (TRIM25 PRY/SPRY [1]; very weak CSPs at site 1) was “binds more weakly”.
For UUUUAUCUGAGUUGGAGGUGAAG [Lnczc3h7a-SL], the binding result (TRIM25 PRY/SPRY [3]; very weak binding, assigned to PRY/SPRY by order) was “binds more weakly” and the Kd (TRIM25 CC) was 14 µM.
